From patent publication US8338368B2 (priority 2005, dated 2012)

Assay: general procedure: Boc solid-phase peptide synthesis; Boc Thr(OBzl) Pam resin; methoxybenzhydrylamine resin; HBTU
Conditions: conjugation step

## Glucagon Cys^24 Mal-PEG-20K
  difficulty met: The product ratio had not significantly improved
